Reference: US20210032312A1
Results are given in words; binding and its absence hold for the method and conditions named. Some results given as binding are weak or reduced against the parent protein; the word gives no strength.

The chains behind the UniProt entries cited, without tags or fusion partners. Residues count along the entry.
UniProt P01732, residues 22-182: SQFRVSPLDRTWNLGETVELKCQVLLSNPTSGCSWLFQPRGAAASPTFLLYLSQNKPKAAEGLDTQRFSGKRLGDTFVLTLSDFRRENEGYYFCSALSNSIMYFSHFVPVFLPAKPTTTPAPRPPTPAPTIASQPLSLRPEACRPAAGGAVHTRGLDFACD

target: recombinant human CD8 alpha fused to Fc fragment of human IgG1 (human) (UniProt P01732); assay: ELISA, biotinylated CD8W7 or CD8W13

binding	Binder
binds	P283HR7P1368_G1 (designed binder) LPAPKNLVVSRVTEDSARLSWTAPDAAFDSFLITYWEIEPEGEAIFLGVPGSERSYDLTGLKPGTEYRVQINGVKGGTISYPLFAGFTT
binds	P283HR7P1368_G11 (designed binder) LPAPKNLVVSRVTEDSARLSWTAPDAAFDSFGIGYAEPAVTGEAISLSVPGSERSYDLTGLKPGTEYWVVIIGVKGGINSYPLGASFTT
binds	P283HR7P1368_H1 (designed binder) LPAPKNLVVSRVTEDSARLSWTAPDAAFDSFGIAYIETARWGEAISLTVPGSERSYDLTGLKPGTEYNVVIIGVKGGTPSHPLGAPFTT
binds	P283HR7P1368_H8 (designed binder) LPAPKNLVVSRVTEDSARLSWTAPDAAFDSFGITYLDPRNGEAISLNVPGSERSYDLTGLKPGTEYWVVIIGVKGGINSYPLGASFTT
binds	P283HR7P1368_G10 (designed binder) LPAPKNLVVSRVTEDSARLSWTAPDAAFDSFGIAYVEWWHRGEAISLPVPGSERSYDLTGLKPGTEYWVTILGVKGGIISTPLGASFTT
binds	P283HR7P1368_F10 (designed binder) LPAPKNLVVSRVTEDSARLSWTAPDAAFDSFYIPYRESEFRGEAIALPVPGSERSYDLTGLKPGTKYRVIIIGVKGGEFSQPLGAIFTT

Continued, binder first:

Binder	binding
P282CR9P1358_C5 (designed binder) LPAPKNLVVSRVTEDSARLSWTAPDAAFDSFLIAYPEWPDSGEAIVLTVPGSERSYDLTGLKPGTEYAVFIWGVKGGPLSHPLSAIFTT	binds
P282CR9P1358_D10 (designed binder) LPAPKNLVVSRVTEDSARLSWTAPDAAFDSFLISYPEYPPPGEAIVLTVPGSERSYDLTGLKPGTEYFVIIFGVKGGDTSWPLSAIFTT	binds
P282AR9P1356_A4 (designed binder) LPAPKNLVVSRVTEDSARLSWVKRPNSFDSFLIQYQESEKVGEAIVLTVPGSERSYDLTGLKPGTEYTVSIYGVDVVDYEGRPRWSNPLSAIFTT	binds
P283HR7P1368_B12 (designed binder) LPAPKNLVVSRVTEDSARLSWTAPDAAFDSFGIGYVEFTRAGEAISLSVPGSERSYDLTGLKPGTEYHVVIIGVKGGEPSHPLGAPFTT	binds
P283HR7P1368_D1 (designed binder) LPAPKNLVVSRVTEDSARLSWTAPDAAFDSFGISYYEWAPNGEAIQLSVPGSERSYDLTGLKPGTEYHVVIIGVKGGEPSHPLGAPFTT	binds
P283HR7P1368_F6 (designed binder) LPAPKNLVVSRVTEDSARLSWTAPDAAFDSFGIGYIEWVHRGEAISLHVPGSERSYDLTGLKPGTEYVVAIVGVKGGEPSTPLGAPFTT	binds
P283HR7P1368_D4 (designed binder) LPAPKNLVVSRVTEDSARLSWTAPDAAFDSFAIWCVEPIPEGEAIPLFVPGSERSYDLTGLKPGTEYRVGIRGVKGGTFSSPLAAPFTT	binds
P283HR7P1368_A10 (designed binder) LPAPKNLVVSRVTEDSARLSWTAPDAAFDSFWIFYLEPFPRGEAIPLEVPGSERSYDLTGLKPGTEYSVDIRGVKGGDHSDPLWAYFTT	binds
P283HR7P1368_C3 (designed binder) LPAPKNLVVSRVTEDSARLSWTAPDAAFDSFGIGYAEPAVTGEAISLSVPGSKRSYDLTGLKPGTEYWVVIIGVKGGINSYPLGASFTT	binds
P283HR7P1368_D2 (designed binder) LPAPKNLVVSRVTEDSARLSWTAPDAAFNSFGIGYAEPAVTGEAISLSVPGSERSYDLTGLKPGTEYWVVIIGVKGGINSYPLGASFTT	binds
